Reference: PubChem BioAssay AID540276 (National Center for Advancing Translational Sciences (NCATS), 2011)
In all, about 300,000 compounds went through this assay and about 5,400 (1.8%) were called active. Inconclusive results, whose numbers are uncertain, are shown with a selection of clear calls. Calls come from the whole dose curve; tested in HEK293 cells. Potencies beside an inconclusive call are fits to weak or partial responses and may not hold up.
% is set by controls: 0 for no effect and ±100 for the full control effect; potency is the fitted concentration of half-maximal effect.

Assay: qHTS for inhibitors of binding or entry into cells for Marburg Virus
Conditions: Marburg virus pseudotyped entry inhibition, cell reporter; activity change, negative = inhibition: at 37.8 µM (top of the series) unless noted
With `Fc1nc(F)c(F)c(NCCCNc2c(F)c(F)nc(F)c2F)c1F` the Potency was inconclusive: 29.1 µM [inhibitor, single point].
With `COc1ccccc1NC(=O)/C(C#N)=C/c1cc([N+](=O)[O-])ccc1N1CCCC1` the Potency was inconclusive: 35.5 µM [inhibitor, single point].
In the case of `CCN(CC)CCN(CC(=O)N(C1CCCCC1)C1CCCCC1)C(=O)c1ccco1`, the Potency was inconclusive: 35.5 µM [inhibitor, single point].
With `Cc1ccc(C(=O)NC(=S)/C=C2\N(C)c3ccccc3C2(C)C)cc1` the “activity change, negative = inhibition” value was inactive: -2.22%.
With `Cc1ccc(NC=C(S(=O)(=O)c2ccccc2)S(=O)(=O)c2ccccc2)cc1` the Potency was inconclusive: 0.355 µM [activator, partial curve, poor fit].
For `Cc1ccc(S(=O)(=O)NC(CC(C)C)C(=O)N2CCCCCCC2)cc1` (centres undefined), the Potency was inconclusive: 22.4 µM [inhibitor, single point].
With `Cc1cc(=O)[nH]c(NN=Cc2cc(Br)ccc2O)n1` the Potency was active: 2 µM.
In the case of `Cc1cnc(C(=O)Nc2nnc(C3CC3)s2)cn1`, the “activity change, negative = inhibition” value was inactive: -7.35%.
In the case of `COc1ccc2oc(C(=O)OCC(=O)NCc3ccc(OC)c(OC)c3)c(C)c2c1`, the Potency was inconclusive: 6.31 µM [inhibitor, partial curve, poor fit].
In the case of `O=C(NCC(c1ccco1)N1CCCCC1)C(c1ccccc1)c1ccccc1` (centres undefined), the Potency was inconclusive: 25.1 µM [inhibitor, partial curve, poor fit].
With `COc1ccccc1C(=O)N1CCN(S(=O)(=O)c2ccccc2)CC1` the “activity change, negative = inhibition” value was inactive: -9.14%.
With `COc1ccc(N2C(=O)c3ccccc3C2O)cc1` (centres undefined) the Potency was inconclusive: 35.5 µM [activator, single point].
For `O=C(c1ccc2c(Cl)c3c(nc2c1)CCCC3)N1CCN(c2ccc(Cl)cc2)CC1`, the “activity change, negative = inhibition” value was inactive: 6.91% [at 46.1 µM].
In the case of `Cc1nc2ccc(C(=O)c3ccccc3)cc2[nH]1`, the “activity change, negative = inhibition” value was inactive: 17.4%.
In the case of `COc1ccc(S(=O)(=O)N2CCOCC2)cc1NC(=O)CSc1nnc(NC2CC2)s1`, the Potency was inconclusive: 1.41 µM [activator, single point].
In the case of `CCOc1ccc(Nc2nc(-c3cccc(Cl)c3)c3c(n2)-c2ccccc2OC3)cc1`, the “activity change, negative = inhibition” value was inactive: -0.833% [at 46.1 µM].
With `Cc1nn(Cc2ccccc2)c(C)c1C(=O)NC1CCCc2ccccc21` (centres undefined) the “activity change, negative = inhibition” value was inactive: -7.96%.
With `COc1ccc([C@]23Cc4cc(OC)c(OC)cc4[C@H](O2)c2c(cc(C)oc2=O)O3)cc1` the Potency was inconclusive: 0.0335 µM [activator, full curve, poor fit].
With `CC(NC(=O)/C(C#N)=C1\N=C(NC(=O)c2cccs2)c2ccccc21)c1ccccc1` (centres undefined) the Potency was inconclusive: 35.5 µM [inhibitor, single point].
